Reference: PubChem BioAssay AID1159578 (Peter MacCallum Cancer Centre, 2015)

Purpose: 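siRNA pools altering how lymphatic endothelial cells close a scratch wound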 (primary screen)
Cells: human lymphatic endothelial cells
Reagents: siRNA pool against human genes, 40 nM
Duration: 48 h after transfection
Measured: 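Cells stained with dye and imaged after a scratch; covered wound area and nuclei counted, duplicates averaged, migration set against mock wells and turned into a robust z-score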
Reading the numbers: migration robust z-score: higher = faster migration into the scratch; nuclei per well: higher = more cells in the well
Call rule: 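Pools averaging fewer than 3300 nuclei are never called; remaining pools count as changed when migration robust z lies outside -2 to 2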
Meaning of the calls: active = migration changed; inactive = no migration change, or too few cells
Shown is a random part of about 18,000 deposited reagents. Of all reagents, about 1,030 (5.7%) are marked active. 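Inactive calls also include pools with fewer than 3300 nuclei, whose migration was not assessed.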 Raw values vary from plate to plate and are shown uncorrected. Entries without a mark were called inactive. Not all columns of the deposit are shown.

With knock-down of LBH the results were migration robust z-score 0.38; migration class with cell-count check migration z between -2 and 2; enough cells; nuclei per well, duplicate mean 5138.
With knock-down of AMN1, the screen gave migration robust z-score 2.66 (active); migration class with cell-count check migration z above 2; enough cells; nuclei per well, duplicate mean 6892.
Against OR10G9 the deposit lists migration robust z-score -1.64; migration class with cell-count check migration z between -2 and 2; enough cells; nuclei per well, duplicate mean 6010.
With knock-down of HSH2D, the record shows migration robust z-score -0.55; migration class with cell-count check migration z between -2 and 2; enough cells; nuclei per well, duplicate mean 5320.
After knock-down of SLC25A21, the record shows migration robust z-score -0.56; migration class with cell-count check migration z between -2 and 2; enough cells; nuclei per well, duplicate mean 5784.
RCN2 showed migration robust z-score 0.82; migration class with cell-count check migration z between -2 and 2; enough cells; nuclei per well, duplicate mean 6068.
ARMC1 gave migration robust z-score -0.2; migration class with cell-count check migration z between -2 and 2; enough cells; nuclei per well, duplicate mean 6415.
Against KBTBD8, the entry reads migration robust z-score 0.98; migration class with cell-count check migration z between -2 and 2; enough cells; nuclei per well, duplicate mean 5788.
CHMP7 scored migration robust z-score -1.06; migration class with cell-count check migration z between -2 and 2; enough cells; nuclei per well, duplicate mean 5854.
NBPF14 showed migration robust z-score 2.5 (active); migration class with cell-count check migration z above 2; enough cells; nuclei per well, duplicate mean 7604.
RPL13A scored migration robust z-score -0.25; migration class with cell-count check migration z between -2 and 2; enough cells; nuclei per well, duplicate mean 5066.
For GYPA, the entry reads migration robust z-score -0.46; migration class with cell-count check migration z between -2 and 2; enough cells; nuclei per well, duplicate mean 6498.
IL17F gave migration robust z-score -0.24; migration class with cell-count check migration z between -2 and 2; enough cells; nuclei per well, duplicate mean 5323.
Against ERH, the entry reads migration robust z-score -0.86; migration class with cell-count check migration z between -2 and 2; enough cells; nuclei per well, duplicate mean 5470.
Against BAALC, the values are migration robust z-score -0.52; migration class with cell-count check migration z between -2 and 2; enough cells; nuclei per well, duplicate mean 5754.
Silencing of RABL6 came out at: migration robust z-score 0.46; migration class with cell-count check migration z between -2 and 2; enough cells; nuclei per well, duplicate mean 6733.
STAP1 gave migration robust z-score 0.12; migration class with cell-count check migration z between -2 and 2; enough cells; nuclei per well, duplicate mean 6106.
RPL15 gave migration robust z-score -2.24 (active); migration class with cell-count check migration z below -2; enough cells; nuclei per well, duplicate mean 4928.
With knock-down of ATXN1, the screen gave migration robust z-score -2.31 (active); migration class with cell-count check migration z below -2; enough cells; nuclei per well, duplicate mean 4974.
Depletion of GIMAP1 gave: migration robust z-score 0.47; migration class with cell-count check migration z between -2 and 2; enough cells; nuclei per well, duplicate mean 5768.
For PRR25, the entry reads migration robust z-score -1.04; migration class with cell-count check migration z between -2 and 2; enough cells; nuclei per well, duplicate mean 5616.

Individual results from the list.
BAALC, nuclei per well, duplicate mean = 5754
SLC25A21, nuclei per well, duplicate mean: 5784
